Test results published in PMC5013874.
These are yes or no findings as the source states them, for the method shown. In cells and extracts the contact can be indirect. Some binding calls cover weakened binding; strength is not graded here. For some assays here: Sequences can lack the tags named with a protein.

Protein sequences, listed by entry. Tags and fused reporters are not part of them. Lines headed by an entry give the natural chain unless they say otherwise; changes in a name come on top.
UniProt P61026: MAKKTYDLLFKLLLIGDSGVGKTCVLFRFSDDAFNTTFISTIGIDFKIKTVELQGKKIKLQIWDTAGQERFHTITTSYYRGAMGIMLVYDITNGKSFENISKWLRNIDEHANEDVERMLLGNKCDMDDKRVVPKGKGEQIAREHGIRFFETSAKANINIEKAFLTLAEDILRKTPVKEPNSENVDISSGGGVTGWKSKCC
UniProt P62330: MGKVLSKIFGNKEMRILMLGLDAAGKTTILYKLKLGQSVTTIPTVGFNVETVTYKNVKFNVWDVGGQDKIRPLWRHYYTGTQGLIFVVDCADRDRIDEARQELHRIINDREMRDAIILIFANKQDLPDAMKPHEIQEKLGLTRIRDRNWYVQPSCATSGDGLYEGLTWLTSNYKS
UniProt Q15286: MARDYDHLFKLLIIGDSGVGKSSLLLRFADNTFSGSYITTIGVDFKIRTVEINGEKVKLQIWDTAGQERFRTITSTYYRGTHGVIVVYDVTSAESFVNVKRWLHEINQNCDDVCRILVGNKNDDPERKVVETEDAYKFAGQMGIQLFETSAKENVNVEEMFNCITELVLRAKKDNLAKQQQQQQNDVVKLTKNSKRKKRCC

Key:
GFP-Rab10 (human) = GFP-Rab10 (human) (UniProt P61026); assay: co-IP
GFP-Rab13 (human) = biological target: T1, GFP-Rab13 (human) (UniProt P51153); assay: co-IP
T1 sequence: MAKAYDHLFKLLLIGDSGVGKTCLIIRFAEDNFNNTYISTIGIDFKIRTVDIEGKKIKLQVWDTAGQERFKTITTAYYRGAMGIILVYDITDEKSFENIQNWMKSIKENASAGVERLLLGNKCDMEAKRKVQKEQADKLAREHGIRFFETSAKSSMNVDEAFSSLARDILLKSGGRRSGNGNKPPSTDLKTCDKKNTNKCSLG

GFP-ARF6 (human) [1] = biological target: GFP-ARF6 (human) (UniProt P62330); assay: co-IP
GFP-Rab35 (human) = GFP-Rab35 (human) (UniProt Q15286); assay: co-IP
GFP-Rab37 (human) = biological target: T2, GFP-Rab37 (human) (UniProt Q96AX2); assay: co-IP
T2 sequence: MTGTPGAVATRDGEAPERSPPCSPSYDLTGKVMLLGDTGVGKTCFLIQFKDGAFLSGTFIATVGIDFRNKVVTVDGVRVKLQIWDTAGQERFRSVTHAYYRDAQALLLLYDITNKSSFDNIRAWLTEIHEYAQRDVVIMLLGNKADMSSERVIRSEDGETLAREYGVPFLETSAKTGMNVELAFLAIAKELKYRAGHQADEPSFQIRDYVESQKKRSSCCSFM

GFP-ARF6 Q67L (human) = GFP-ARF6 Q67L (human) (UniProt P62330); assay: co-IP
GFP-Rab43a (human) = biological target: T3, GFP-Rab43a (human) (UniProt Q86YS6); assay: co-IP
T3 sequence: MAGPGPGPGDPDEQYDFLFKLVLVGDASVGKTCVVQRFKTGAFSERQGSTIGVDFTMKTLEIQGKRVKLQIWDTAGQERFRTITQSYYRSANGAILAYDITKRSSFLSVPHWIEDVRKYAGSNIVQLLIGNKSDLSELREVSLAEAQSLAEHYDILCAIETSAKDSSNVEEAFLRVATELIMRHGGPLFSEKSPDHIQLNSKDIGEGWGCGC

GFP-ARF6 (human) [2] = biological target: GFP-ARF6 (human) (UniProt P62330); assay: co-IP; infection time-course from 2.5 to 7.5 h of infection; data not shown

Measured: binding

B1: EspG:4xHA (protein, UniProt Q7DB50 1-381)
chain: MINGLNNDSASLVLDAAMKVNSGFKKSWDEMSCAEKLFKVLSFGLWNPTYSRSERQSFQELLTVLEPVYPLPNELGRVSARFSDGSSLRISVTNSELVEAEIRTANNEKITVLLESNEQNRLLQSLPIDRHMPYIQVHRALSEMDLTDTTSMRNLLGFTSKLSTTLIPHNAQTDPLSGPTPFSSIFMDTCRGLGNAKLSLNGVDIPANAQKLLRDALGLKDTHSSPTRNVIDHGISRHDAEQIARESSGSDKQKAEVVEFLCHPEAATAICSAFYQSFNVPALTLTHERISKASEYNAERSLDTPNACINISISQSSDGNIYVTSHTGVLIMAPEDRPNEMGMLTNRTSYEVPQGVKCIIDEMVSALQPRYAASETYLQNT
binds: GFP-Rab10 (human) | GFP-Rab13 (human) | GFP-ARF6 (human) [1] | GFP-Rab35 (human) | GFP-Rab37 (human) | GFP-ARF6 Q67L (human) | GFP-Rab43a (human) | GFP-ARF6 (human) [2]
